Assay results: PubChem BioAssay AID2685 (National Center for Advancing Translational Sciences (NCATS), 2010)
The other results are listed elsewhere or left out. Further columns of the screen follow, without active or inactive calls. The list favours compounds with an active or inconclusive main result. Words in brackets tell the shape of the fitted curve; partial curves, single points and poor fits give uncertain potencies.

Assay: qHTS Assay for Lipid Storage Modulators in Drosophila S3 Cells;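 as to cell number change: cells counted by Cell Tracker Red CMTPX staining in the red channel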
Conditions: BODIPY lipid droplet fluorescence, 18-24 h; for cell number change: measured here: cell count max response, cells fed with added oleic acid
Method in brief: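 Drosophila S3 cells got compounds at several concentrations plus oleic acid (400 uM solution). Laser-scanning cytometry with 488 nm excitation read lipid droplets at 500-530 nm and cells at 575-640 nm. Percent activity was relative to 20 uM Triacsin C.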

[1] = measured here: lipid fluorescence (Fed channel) AC50, cells fed with added oleic acid
[2] = measured here: cell number channel AC50, cells fed with added oleic acid

For `CCC(C)(C)NC(=O)CN(C(=O)C(=O)Nc1ccc2c(c1)OCCO2)C1CC1`, the AC50 [1] was 1.03 µM [falling, single point].
For `Cc1ccc(Nc2nc(-c3sc(NC(=O)c4ccccc4)nc3C)cs2)cc1`, the cell number change was -6.39% and the AC50 [1] was 11.6 µM [rising, partial curve].
In the case of `Cc1ccc(CNC(=O)c2cc3c(=O)n4ccccc4nc3n(Cc3ccco3)c2=N)cc1`, the cell number change is reported as -12.2% and the AC50 [1] is reported as 0.164 µM [rising, full curve, poor fit].
For `COc1cccc(C(=O)O/N=C(\N)c2ccc(C)cc2)c1`, the AC50 [2] was 0.82 µM [rising, full curve, poor fit] and the AC50 [1] was 0.58 µM [rising, single point].
In the case of `O=c1cc(CSc2nnc(-c3ccccc3)o2)c2ccccc2[nH]1`, the cell number change is reported as -28.3% and the AC50 [1] is reported as 29.1 µM [falling, single point].
With `O=C(Nc1ccc(F)cc1)Nc1nnc(-c2ccco2)s1` the cell number change was -21.9% and the AC50 [1] was 16.4 µM [falling, partial curve].
For `CCc1ccc(O)c(CNCCNCc2cc(CC)ccc2O)c1`, the cell number change was -87.2% and the AC50 [2] was 16.4 µM [falling, partial curve].
In the case of `CC1CCN(c2nc3c(c(=O)n(C)c(=O)n3C)n2CCSc2nc3ccccc3o2)CC1`, the cell number change is reported as -30.4%, the AC50 [2] is reported as 1.3 µM [falling, full curve, poor fit] and the AC50 [1] is reported as 1.3 µM [falling, full curve].
With `O=C(CSc1ncnc2c1nnn2Cc1ccccc1F)NCC1CCCO1` (stereo not given) the cell number change was -0.215% and the AC50 [1] was 32.6 µM [falling, single point].
Molecule `Cc1ccc(S(=O)(=O)CCNC(=O)Cc2ccc(Cl)cc2)cc1` has a cell number change of 11.1%.
With `Nc1ccc(-c2nc3ccccc3[nH]2)cc1` the AC50 [2] was 0.103 µM [rising, full curve, poor fit].
In the case of `C/C=C(\C)C(=O)OC1c2c(ccc3ccc(=O)oc23)OC(C)(C)C1OC(C)=O` (stereo not given), the cell number change is reported as -22.3% and the AC50 [1] is reported as 23.1 µM [falling, single point].
In the case of `Cc1nc(NC(=O)CSc2ccc(-c3nc4ccccc4[nH]3)cn2)sc1C`, the cell number change is reported as -46.7%, the AC50 [2] is reported as 29.1 µM [falling, single point] and the AC50 [1] is reported as 29.1 µM [falling, single point].
For `O=C(COC(=O)c1c[nH]c(=O)[nH]c1=O)Nc1ccccc1F`, the AC50 [2] was 0.00517 µM [falling, full curve, poor fit].
Work on `CCCCCc1nnc(NC(=O)C2COc3ccccc3O2)s1` (stereo not given) yielded a cell number change of 20.9%.
In the case of `Nc1ccc(Sc2nc3ccccc3[nH]2)cc1`, the cell number change is reported as 31.3%, the AC50 [2] is reported as 0.82 µM [rising, full curve] and the AC50 [1] is reported as 6.51 µM [rising, single point].
In the case of `CCOC(=O)CN1CC23C=CC(O2)C(C(=O)Nc2ccc(C(C)=O)cc2)C3C1=O` (stereo not given), the cell number change is reported as -3.19% and the AC50 [1] is reported as 8.2 µM [falling, partial curve].
With `O=C(CSC1=NC2(CCCCC2)N=C1c1ccccc1)Nc1ccc2c(c1)OCCO2` the cell number change was 0.215% and the AC50 [1] was 20.6 µM [falling, single point].
For `CC(=O)N1CCC(C(=O)Nc2ccc(S(=O)(=O)N3CCCCC3)cc2)CC1`, the cell number change was -10.6% and the AC50 [1] was 7.31 µM [falling, partial curve, poor fit].
With `Cc1cc2cc(CN(Cc3nnnn3C3CCCCC3)CC3CCCO3)c(=O)[nH]c2cc1C` (stereo not given) the cell number change was -32.8% and the AC50 [2] was 0.116 µM [falling, full curve, poor fit].
For `C(=N\n1cnnc1)/c1cn(Cc2ccccc2)c2ccccc12`, the cell number change was -20.4%, the AC50 [2] was 0.092 µM [falling, full curve, poor fit] and the AC50 [1] was 5.17 µM [falling, single point].
For `Nc1nc(NCC2CCCO2)nc(Nc2ccccc2F)c1[N+](=O)[O-]` (stereo not given), the cell number change was 46.9%, the AC50 [2] was 0.82 µM [rising, full curve, poor fit] and the AC50 [1] was 0.651 µM [rising, full curve].
With `Cn1nnnc1Sc1ncnc2scc(-c3ccc(F)cc3)c12` the AC50 [1] was 4.61 µM [rising, full curve, poor fit].
For `Cc1ccc(C(C)C)cc1OCC(=O)N/N=C/c1ccc2c(c1)OCCO2`, the cell number change was 47.8%, the AC50 [2] was 9.2 µM [rising, partial curve] and the AC50 [1] was 7.31 µM [rising, partial curve].
In the case of `Cc1ccc(N(C)C(=O)c2cc(S(=O)(=O)N3CCCC3)cn2C)cc1`, the cell number change is reported as -23.1% and the AC50 [1] is reported as 1.46 µM [falling, partial curve].
In the case of `O=c1c2ccccc2nc(COc2ccccc2)n1/N=C/c1ccc(O)c(O)c1`, the cell number change is reported as -24.2%.
For `O=C(Nc1cccc2ccccc12)NC1CCS(=O)(=O)C1` (stereo not given), the AC50 [1] was 0.00517 µM [rising, full curve, poor fit].
In the case of `CN(C)c1ccc(C(c2nnnn2C(C)(C)C)N2CCN(C(=O)c3ccco3)CC2)cc1` (stereo not given), the cell number change is reported as 4.11%.
`COc1ccc(C2=NOC(C(=O)Nc3ccc(C(C)=O)cc3)C2)cc1OC` (stereo not given) showed a cell number change of 7.76%.
For `COc1cccc(NC(=S)NC(=O)Cc2ccc(Cl)cc2)c1`, the cell number change was -26.5% and the AC50 [1] was 5.17 µM [rising, partial curve].
In the case of `O=C(c1ccco1)N1CCN(C(=O)c2ccc(-c3ccc(Cl)cc3)o2)CC1`, the cell number change is reported as -41.1%, the AC50 [2] is reported as 23.1 µM [falling, single point] and the AC50 [1] is reported as 0.366 µM [falling, single point].
For `O=C(O)/C=C/c1ccc([N+](=O)[O-])o1`, the cell number change was -15%, the AC50 [2] was 0.731 µM [falling, full curve] and the AC50 [1] was 5.8 µM [falling, full curve].
For `CCOc1ncccc1C(=O)OCC(=O)c1cc(OC)ccc1OC`, the cell number change was 117%.
In the case of `Nc1nc(-c2ccccc2)c(N=Nc2cccc3ccccc23)s1`, the cell number change is reported as -91.8%, the AC50 [2] is reported as 20.6 µM [falling, partial curve] and the AC50 [1] is reported as 0.00461 µM [falling, full curve, poor fit].
For `COc1ccc2c(c1OC)C(=O)O[C@@H]2[C@H]1c2c(cc3c(c2OC)OCO3)CCN1C`, the cell number change was -5.13% and the AC50 [1] was 1.46 µM [rising, full curve].
For `CN(C)CC(C(=O)c1ccccc1)c1ccccc1` (stereo not given), the cell number change was -65.6%, the AC50 [2] was 16.4 µM [falling, partial curve] and the AC50 [1] was 6.51 µM [falling, single point].
In the case of `O=c1sc2ccccc2n1Cc1ccccc1`, the cell number change is reported as 22.7% and the AC50 [2] is reported as 4.11 µM [rising, full curve, poor fit].
With `COc1cc(/C=C/C(=O)c2cccc([N+](=O)[O-])c2)cc(OC)c1OC` the cell number change was -57.8%, the AC50 [2] was 2.06 µM [falling, partial curve] and the AC50 [1] was 16.4 µM [falling, single point].
For `CC(C)[C@@H]1COC(c2cccc(C3=N[C@H](C(C)C)CO3)c2)=N1`, the cell number change was -1.94% and the AC50 [1] was 29.1 µM [rising, single point].
For `O=S(=O)(Nc1ccccc1OC(F)F)c1ccc(S(=O)(=O)N2CCCC2)cc1`, the cell number change was 3.02% and the AC50 [1] was 0.00731 µM [rising, full curve, poor fit].
For `CCOC(=O)c1c(NC(=O)COc2ccccc2C#N)sc2c1CC(C)(C)NC2(C)C`, the cell number change was -38.6% and the AC50 [2] was 29.1 µM [falling, single point].
In the case of `CSC(=NS(=O)(=O)c1ccc(C)cc1)SC`, the cell number change is reported as 7.65% and the AC50 [1] is reported as 14.6 µM [rising, partial curve].
In the case of `CC(C)COP(=O)(c1ccc(N(C)C)cc1)C(O)c1ccc(Br)cc1` (stereo not given), the cell number change is reported as -38.8%, the AC50 [2] is reported as 14.6 µM [falling, partial curve] and the AC50 [1] is reported as 9.2 µM [falling, partial curve].
For `CSc1nc2sccc2c(=O)[nH]1`, the cell number change was 25.9% and the AC50 [2] was 3.66 µM [rising, full curve, poor fit].
In the case of `Cc1c(NS(=O)(=O)c2cc(C(=O)NCC3CCCO3)cc(Cl)c2Cl)c(=O)n(-c2ccccc2)n1C` (stereo not given), the AC50 [2] is reported as 0.13 µM [falling, full curve, poor fit] and the AC50 [1] is reported as 0.651 µM [falling, single point].
Work on `CC(C)NC(=O)c1ccc2c(c1)N(CC(=O)Nc1ccccc1F)C(=O)C(C)(C)O2` yielded a cell number change of -8.92%.
With `O=C(CSc1ccccn1)Nc1cccc([N+](=O)[O-])c1` the cell number change was 50.5%, the AC50 [2] was 20.6 µM [rising, single point] and the AC50 [1] was 20.6 µM [rising, partial curve].
In the case of `COc1cccc(CNC(=O)c2nnn(CC(=O)Nc3c(C)cccc3C)c2N)c1`, the cell number change is reported as 12.2% and the AC50 [1] is reported as 20.6 µM [falling, single point].
In the case of `COc1ccc(C(C#N)N2N=C(C)CC2(C)C)cc1` (stereo not given), the cell number change is reported as 19.7% and the AC50 [1] is reported as 0.291 µM [falling, full curve, poor fit].
In the case of `CC1CC(C)(C)NC(=S)N1CCCC(=O)Nc1ccc(Br)cc1` (stereo not given), the cell number change is reported as 34% and the AC50 [2] is reported as 2.31 µM [rising, partial curve, poor fit].
In the case of `Cc1ccccc1-n1nc2c(c1NC(=O)c1c(-c3ccccc3Cl)noc1C)CSC2`, the cell number change is reported as 4.32% and the AC50 [1] is reported as 29.1 µM [rising, single point].
In the case of `COc1cc(CNCCO)cc(Cl)c1OCc1ccc(Cl)cc1Cl`, the cell number change is reported as -29.8%, the AC50 [2] is reported as 2.06 µM [falling, partial curve, poor fit] and the AC50 [1] is reported as 3.26 µM [falling, single point].
In the case of `CN(C(=O)c1cc(-n2cnnc2)ccc1Cl)c1ccccc1`, the cell number change is reported as 5.14% and the AC50 [1] is reported as 23.1 µM [rising, single point].
With `Nn1c(SCC(=O)Nc2ccc(OC(F)F)cc2)nnc(Cc2ccccc2)c1=O` the cell number change was -75% and the AC50 [2] was 29.1 µM [falling, single point].
In the case of `CCn1c(CSc2nc3ccccc3s2)nnc1SCC(=O)c1ccc(Cl)cc1`, the AC50 [1] is reported as 5.17 µM [rising, single point].
In the case of `COc1ccc(-c2cc(-c3ccccc3)n3ncnc3n2)cc1`, the cell number change is reported as 36.2% and the AC50 [2] is reported as 0.92 µM [rising, partial curve].
For `Cc1ccc(S(=O)(=O)N(C)CC(=O)NNC(=O)Cc2cccc(F)c2)cc1`, the cell number change was -5.76% and the AC50 [1] was 16.4 µM [falling, single point].
